Source: the supplement of paper PMC3334620
In all, about 33,000 sequences were measured (“E-score (-0.5 to 0.5)”: median about -8e-05, highest 2% from about 0.23 on). This is one part of the list.

The sequences below were run against T1, Nrg2 (UniProt P38082) (assay: PBM E-score (8-mer binding enrichment) (E-score (-0.5 to 0.5)); higher = stronger / more preferred TF binding). Settings: protein concentration: 100 nM; construct: GST-full length.
T1 sequence: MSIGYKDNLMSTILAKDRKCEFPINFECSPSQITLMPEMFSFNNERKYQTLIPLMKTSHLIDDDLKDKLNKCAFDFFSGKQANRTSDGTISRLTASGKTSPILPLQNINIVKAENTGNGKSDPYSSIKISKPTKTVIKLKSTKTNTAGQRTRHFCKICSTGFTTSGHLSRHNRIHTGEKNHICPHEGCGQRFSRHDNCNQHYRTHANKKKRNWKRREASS
How it was run: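 Universal all-10-mer Agilent arrays, fresh or stripped once, were converted to double-stranded form by primer extension. GST-tagged yeast transcription factors from PURExpress in vitro transcription/translation, full-length or DNA-binding domain only, were applied at about 100-200 nM and detected with fluorescent anti-GST. After masliner normalisation, the Universal PBM Analysis Suite scored each ungapped eight-base word together with its reverse complement by E-score.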

Sequence | PBM E-score
CCCTATGA | -0.028
CCATTGCG | -0.0449
TCATTGGA | 0.0781
CTCATTAA | 0.173
TGATGAAA | 0.0875
GCAGGAAA | 0.0944
AGTCTCTA | -0.115
AATTAGTA | 0.23
CGAAGAAC | -0.0662
CTCAGTTA | 0.0608
CCGGTAGC | -0.234
CTCTCTCC | -0.195
CGGTCGAG | -0.155
GTGCGAGA | 0.106
CTCCCTGC | -0.0805
ATTGCACG | 0.141
GAGGACGA | 0.0657
ACACCTCG | 0.014
GGTGCAAC | -0.13
GAGTCGGA | -0.0232
ACGCCGAG | 0.0717
AGCTCGCG | 0.156
CACGACCG | -0.195
AGGACGCG | -0.111

Sequence | PBM E-score
AAAAGACG | -0.0148
ACGTCTGC | -0.0969
ACAAGTTA | 0.0352
AGCTTATG | 0.0706
CTGGCAAG | -0.127
CAGTAGAG | -0.221
ATTATCTC | 0.195
TAAGGAAA | -0.0344
AGAGCCGG | -0.209
CGGTTCGA | 0.188
ATTGTTAC | 0.165
GGCTGGTA | -0.0211
CCGATTCC | 0.00489
AGTTGTGC | 0.0129
AGGTGCAG | -0.0039
CCATCGGG | -0.0901
ATACTGGC | 0.0697
AACGTGGT | -0.119
GATCCACC | -0.161
GAATTCTC | -0.00666
AGAGCCCA | -0.0955
ATGAAGAA | 0.025
GCTCATAC | -0.00494
GAAAGCCC | 0.0882

Sequence | PBM E-score
CTGCGGTC | 0.0351
TATGACGA | -0.0603
ATCAAGCA | 0.0485
AGTCTATG | -0.111
ATCCATAG | -0.12
CCTTAAAA | 0.0445
CCAGTATA | -0.00867
ACCTGAAT | 0.172
CCCAATGC | -0.161
CCCTGGTC | 0.0217
GTAATTTA | 0.089
GCGCGGAC | 0.127
CGTTTTAA | 0.0715
ACCAAAGG | -0.142
ATCGAACA | 0.217
CTAACTCA | -0.011
CTAGATTC | -0.0731
GCGTTCGA | 0.159
ACATTTTA | 0.0835
CGGATGGC | 0.0447
ACTCCACA | 0.0471
CTACTCAC | 0.0755
ATTCGGGC | -0.044
AACGGTTG | 0.038

Sequence | PBM E-score
GAGTATAA | 0.145
TCCCTAAA | 0.0662
ACGAATTA | 0.1
AGACGGAA | -0.0774
AAAGTGAA | 0.157
AAGTGACT | -0.236
CCTGGTGA | -0.0401
CAATCTCC | 0.0119
AACCCGAC | -0.00418
CCCGCCAA | -0.175
AGCCCAAA | 0.0891
GGCGCAAA | 0.14
GCCAGAGC | -0.162
CGGGCGGC | -0.0587
ACAGCAGT | -0.0888
AGAGGGAC | -0.0381
CGTGGGTC | 0.0321
AAACTCAA | 0.117
CGAAGCGA | -0.0324
ATGTTTCC | -0.0231
CCCTTTCG | 0.0725
AACTTCAC | 0.194
